# Data reported in the supplement of paper PMC8728848.
# The other results are listed elsewhere or left out.
# Key:
# Experiment in all cases: glycan array binding signal (z-score within array); higher = stronger binding
# Conditions in all cases: glycan notation: IUPAC condensed, linker removed
# [1] = biological target: Gal(a1-3)Gal(b1-4)GlcNAc(b1-3)GalNAc
# Method in brief: (§1)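 Glycan array binding is given as a within-array Z-score, which can be read as non-binding when negative. The arrays, 3228 of them, came from the Consortium for Functional Glycomics database and were retained only where the protein sequence was available. Z-scores were averaged across arrays of the same protein sequence at different concentrations or buffers and across linkers.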
# [2] = biological target: Gal(a1-3)Gal(b1-4)[Fuc(a1-3)]GlcNAc
# Method in brief: as §1
# [3] = biological target: Gal(a1-3)Gal(b1-4)[Fuc(a1-3)]GlcNAc(b1-2)Man(a1-3)[Gal(a1-3)Gal(b1-4)[Fuc(a1-3)]GlcNAc(b1-2)Man(a1-6)]Man(b1-4)GlcNAc(b1-4)GlcNAc
# Method in brief: as §1
# Gal(a1-3)GalNAc = biological target: Gal(a1-3)GalNAc
# Method in brief: as §1
# [4] = biological target: Gal(a1-3)[Gal(a1-4)]Gal(b1-4)GlcNAc
# Method in brief: as §1
# [5] = biological target: Gal(a1-4)Gal(b1-3)GlcNAc(b1-2)Man(a1-3)[Gal(a1-4)Gal(b1-3)GlcNAc(b1-2)Man(a1-6)]Man(b1-4)GlcNAc(b1-4)GlcNAc
# Method in brief: as §1
# Gal(a1-4)Gal(b1-4)Glc = biological target: Gal(a1-4)Gal(b1-4)Glc
# Method in brief: as §1
# Gal(a1-4)Gal(b1-4)GlcNAc = biological target: Gal(a1-4)Gal(b1-4)GlcNAc
# Method in brief: as §1
# [6] = biological target: Gal(a1-4)Gal(b1-4)GlcNAc(b1-2)Man(a1-3)[Gal(a1-4)Gal(b1-4)GlcNAc(b1-2)Man(a1-6)]Man(b1-4)GlcNAc(b1-4)GlcNAc
# Method in brief: as §1
# [7] = biological target: Gal(a1-4)Gal(b1-4)GlcNAc(b1-3)Gal(b1-4)Glc
# Method in brief: as §1
# Gal(a1-4)GlcNAc = biological target: Gal(a1-4)GlcNAc
# Method in brief: as §1
# Gal(a1-6)Glc = biological target: Gal(a1-6)Glc
# Method in brief: as §1
# Gal(b1-2)Gal = biological target: Gal(b1-2)Gal
# Method in brief: as §1
# Gal(b1-3)Gal = biological target: Gal(b1-3)Gal
# Method in brief: as §1
# Gal(b1-3)Gal(b1-4)GlcNAc = biological target: Gal(b1-3)Gal(b1-4)GlcNAc
# Method in brief: as §1
# [8] = biological target: Gal(b1-3)Gal(b1-4)GlcNAc(b1-2)Man(a1-3)[Gal(b1-3)Gal(b1-4)GlcNAc(b1-2)Man(a1-6)]Man(b1-4)GlcNAc(b1-4)GlcNAc
# Method in brief: as §1
# Gal(b1-3)GalNAc = biological target: Gal(b1-3)GalNAc
# Method in brief: as §1
# [9] = biological target: Gal(b1-3)GalNAc(a1-3)[Fuc(a1-2)]Gal(b1-4)Glc
# Method in brief: as §1
# [10] = biological target: Gal(b1-3)GalNAc(a1-3)[Fuc(a1-2)]Gal(b1-4)GlcNAc
# Method in brief: as §1
# [11] = biological target: Gal(b1-3)GalNAc(b1-3)Gal(a1-4)Gal(b1-4)Glc
# Method in brief: as §1
# [12] = biological target: Gal(b1-3)GalNAc(b1-4)Gal(b1-4)Glc
# Method in brief: as §1
# [13] = biological target: Gal(b1-3)GalNAc(b1-4)[Neu5Ac(a2-3)]Gal(b1-4)Glc
# Method in brief: as §1
# Gal(b1-3)GlcNAc = biological target: Gal(b1-3)GlcNAc
# Method in brief: as §1
# [14] = biological target: Gal(b1-3)GlcNAc(a1-6)Gal(b1-4)GlcNAc
# Method in brief: as §1
# [15] = biological target: Gal(b1-3)GlcNAc(b1-2)Man(a1-3)[Gal(b1-3)GlcNAc(b1-2)Man(a1-6)]Man(b1-4)GlcNAc(b1-4)GlcNAc
# Method in brief: as §1
# [16] = biological target: Gal(b1-3)GlcNAc(b1-2)Man(a1-3)[Gal(b1-3)GlcNAc(b1-2)Man(a1-6)]Man(b1-4)GlcNAc(b1-4)[Fuc(a1-6)]GlcNAc
# Method in brief: as §1
# [17] = biological target: Gal(b1-3)GlcNAc(b1-2)[Gal(b1-3)GlcNAc(b1-6)]Man(a1-6)[Gal(b1-3)GlcNAc(b1-2)Man(a1-3)]Man(b1-4)GlcNAc(b1-4)GlcNAc
# Method in brief: as §1
# [18] = biological target: Gal(b1-3)GlcNAc(b1-3)Gal(b1-3)GlcNAc
# Method in brief: as §1
# [19] = biological target: Gal(b1-3)GlcNAc(b1-3)Gal(b1-4)Glc
# Method in brief: as §1
# [20] = biological target: Gal(b1-3)GlcNAc(b1-3)Gal(b1-4)GlcNAc
# Method in brief: as §1
# [21] = biological target: Gal(b1-3)GlcNAc(b1-3)Gal(b1-4)GlcNAc(b1-6)[Gal(b1-3)GlcNAc(b1-3)]Gal(b1-4)Glc
# Method in brief: as §1
# [22] = biological target: Gal(b1-3)GlcNAc(b1-3)Gal(b1-4)[Fuc(a1-3)]GlcNAc(b1-6)[Gal(b1-3)GlcNAc(b1-3)]Gal(b1-4)Glc
# Method in brief: as §1
# [23] = biological target: Gal(b1-3)GlcNAc(b1-3)GalNAc
# Method in brief: as §1
# [24] = biological target: Gal(b1-3)GlcNAc(b1-6)Gal(b1-4)GlcNAc
# Method in brief: as §1
# [25] = biological target: Gal(b1-3)[Fuc(a1-4)]GlcNAc
# Method in brief: as §1
# [26] = biological target: Gal(b1-3)[Fuc(a1-4)]GlcNAc(b1-2)Man(a1-3)[Gal(b1-3)[Fuc(a1-4)]GlcNAc(b1-2)Man(a1-6)]Man(b1-4)GlcNAc(b1-4)GlcNAc
# Method in brief: as §1
# [27] = biological target: Gal(b1-3)[Fuc(a1-4)]GlcNAc(b1-2)Man(a1-3)[Gal(b1-3)[Fuc(a1-4)]GlcNAc(b1-2)Man(a1-6)]Man(b1-4)GlcNAc(b1-4)[Fuc(a1-6)]GlcNAc
# Method in brief: as §1
# [28] = biological target: Gal(b1-3)[Fuc(a1-4)]GlcNAc(b1-3)Gal(b1-3)[Fuc(a1-4)]GlcNAc
# Method in brief: as §1
binder,measurement,setting,value
"PGP3 (Chlamydia trachomatis), P0CE18 (protein) MGNSGFYLYNTQNCVFADNIKVGQMTEPLKDQQIILGTTSTPVAAKMTASDGISLTVSNNPSTNASITIGLDAEKAYQLILEKLGDQILGGIADTIVDSTVQDILDKITTDPSLGLLKAFNNFPITNKIQCNGLFTPRNIETLLGGTEIGKFTVTPKSSGSMFLVSADIIASRMEGGVVLALVREGDSKPYAISYGYSSGVPNLCSLRTRIINTGLTPTTYSLRVGGLESGVVWVNALSNGNDILGITNTSNVSFLEVIPQTNA",glycan array binding signal (z-score),[1],-0.049
same,glycan array binding signal (z-score),[2],-0.404
same,glycan array binding signal (z-score),[3],1.76
same,glycan array binding signal (z-score),Gal(a1-3)GalNAc,-0.245
same,glycan array binding signal (z-score),[4],0.017
same,glycan array binding signal (z-score),[5],3.06
same,glycan array binding signal (z-score),Gal(a1-4)Gal(b1-4)Glc,-1.34
same,glycan array binding signal (z-score),Gal(a1-4)Gal(b1-4)GlcNAc,0.13
same,glycan array binding signal (z-score),[6],1.94
same,glycan array binding signal (z-score),[7],-0.099
same,glycan array binding signal (z-score),Gal(a1-4)GlcNAc,1.52
same,glycan array binding signal (z-score),Gal(a1-6)Glc,-1.92
same,glycan array binding signal (z-score),Gal(b1-2)Gal,0.34
same,glycan array binding signal (z-score),Gal(b1-3)Gal,0.468
same,glycan array binding signal (z-score),Gal(b1-3)Gal(b1-4)GlcNAc,-0.606
same,glycan array binding signal (z-score),[8],-1.08
same,glycan array binding signal (z-score),Gal(b1-3)GalNAc,0.049
same,glycan array binding signal (z-score),[9],-0.698
same,glycan array binding signal (z-score),[10],-0.558
same,glycan array binding signal (z-score),[11],-0.346
same,glycan array binding signal (z-score),[12],1.25
same,glycan array binding signal (z-score),[13],-0.761
same,glycan array binding signal (z-score),Gal(b1-3)GlcNAc,-0.522
same,glycan array binding signal (z-score),[14],0.546
same,glycan array binding signal (z-score),[15],1.2
same,glycan array binding signal (z-score),[16],-0.43
same,glycan array binding signal (z-score),[17],-0.594
same,glycan array binding signal (z-score),[18],-0.292
same,glycan array binding signal (z-score),[19],-0.455
same,glycan array binding signal (z-score),[20],-0.084
same,glycan array binding signal (z-score),[21],0.18
same,glycan array binding signal (z-score),[22],-0.39
same,glycan array binding signal (z-score),[23],0.155
same,glycan array binding signal (z-score),[24],-0.049
same,glycan array binding signal (z-score),[25],-0.42
same,glycan array binding signal (z-score),[26],-0.88
same,glycan array binding signal (z-score),[27],1.46
same,glycan array binding signal (z-score),[28],0.789

# Rewritten with tabs: part of the list above.
binder	measurement	setting	value
PGP3 (Chlamydia trachomatis), P0CE18 (protein) MGNSGFYLYNTQNCVFADNIKVGQMTEPLKDQQIILGTTSTPVAAKMTASDGISLTVSNNPSTNASITIGLDAEKAYQLILEKLGDQILGGIADTIVDSTVQDILDKITTDPSLGLLKAFNNFPITNKIQCNGLFTPRNIETLLGGTEIGKFTVTPKSSGSMFLVSADIIASRMEGGVVLALVREGDSKPYAISYGYSSGVPNLCSLRTRIINTGLTPTTYSLRVGGLESGVVWVNALSNGNDILGITNTSNVSFLEVIPQTNA	glycan array binding signal (z-score)	[1]	-0.049
same	glycan array binding signal (z-score)	Gal(b1-3)Gal(b1-4)GlcNAc	-0.606
same	glycan array binding signal (z-score)	[8]	-1.08
same	glycan array binding signal (z-score)	Gal(b1-3)GalNAc	0.049
same	glycan array binding signal (z-score)	[11]	-0.346
same	glycan array binding signal (z-score)	[14]	0.546
same	glycan array binding signal (z-score)	[17]	-0.594
same	glycan array binding signal (z-score)	[18]	-0.292
same	glycan array binding signal (z-score)	[25]	-0.42
same	glycan array binding signal (z-score)	[28]	0.789
